Test results taken from the supplement of paper PMC6411743.
± gives the standard deviation of the averaged measurements. Some of the results follow.

Amino acid sequences for entries named in this document (tags omitted). A change or cut given only in a name is not applied to a line headed by its entry.
UniProt Q9BV68: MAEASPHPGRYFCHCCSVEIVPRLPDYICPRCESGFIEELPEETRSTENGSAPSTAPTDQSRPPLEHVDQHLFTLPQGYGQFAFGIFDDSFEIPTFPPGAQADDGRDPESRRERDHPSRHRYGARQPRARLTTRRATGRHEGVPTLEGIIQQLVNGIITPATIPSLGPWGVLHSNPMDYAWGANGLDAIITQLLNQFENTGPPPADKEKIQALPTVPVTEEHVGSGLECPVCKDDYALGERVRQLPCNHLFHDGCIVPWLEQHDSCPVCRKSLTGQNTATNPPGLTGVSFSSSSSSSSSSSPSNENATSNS
UniProt O43169: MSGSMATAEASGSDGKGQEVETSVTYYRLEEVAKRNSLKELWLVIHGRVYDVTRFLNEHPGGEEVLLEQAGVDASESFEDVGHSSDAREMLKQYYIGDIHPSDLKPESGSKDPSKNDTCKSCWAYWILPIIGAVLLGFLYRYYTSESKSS
UniProt P61960, whole entry: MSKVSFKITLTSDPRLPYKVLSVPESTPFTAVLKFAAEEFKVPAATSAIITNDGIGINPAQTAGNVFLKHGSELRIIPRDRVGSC
UniProt Q96SW2: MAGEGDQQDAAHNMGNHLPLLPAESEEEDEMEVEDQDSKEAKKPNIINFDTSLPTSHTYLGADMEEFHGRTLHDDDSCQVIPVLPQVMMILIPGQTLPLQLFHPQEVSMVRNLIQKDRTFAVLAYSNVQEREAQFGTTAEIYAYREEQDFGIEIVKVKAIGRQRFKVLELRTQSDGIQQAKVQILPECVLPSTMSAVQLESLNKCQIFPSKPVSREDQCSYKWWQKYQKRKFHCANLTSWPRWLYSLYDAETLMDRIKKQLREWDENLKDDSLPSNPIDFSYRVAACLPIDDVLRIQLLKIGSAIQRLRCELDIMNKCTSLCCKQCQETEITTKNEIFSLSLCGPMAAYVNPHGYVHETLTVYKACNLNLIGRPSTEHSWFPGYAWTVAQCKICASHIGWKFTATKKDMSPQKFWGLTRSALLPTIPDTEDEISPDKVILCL
UniProt Q7Z569: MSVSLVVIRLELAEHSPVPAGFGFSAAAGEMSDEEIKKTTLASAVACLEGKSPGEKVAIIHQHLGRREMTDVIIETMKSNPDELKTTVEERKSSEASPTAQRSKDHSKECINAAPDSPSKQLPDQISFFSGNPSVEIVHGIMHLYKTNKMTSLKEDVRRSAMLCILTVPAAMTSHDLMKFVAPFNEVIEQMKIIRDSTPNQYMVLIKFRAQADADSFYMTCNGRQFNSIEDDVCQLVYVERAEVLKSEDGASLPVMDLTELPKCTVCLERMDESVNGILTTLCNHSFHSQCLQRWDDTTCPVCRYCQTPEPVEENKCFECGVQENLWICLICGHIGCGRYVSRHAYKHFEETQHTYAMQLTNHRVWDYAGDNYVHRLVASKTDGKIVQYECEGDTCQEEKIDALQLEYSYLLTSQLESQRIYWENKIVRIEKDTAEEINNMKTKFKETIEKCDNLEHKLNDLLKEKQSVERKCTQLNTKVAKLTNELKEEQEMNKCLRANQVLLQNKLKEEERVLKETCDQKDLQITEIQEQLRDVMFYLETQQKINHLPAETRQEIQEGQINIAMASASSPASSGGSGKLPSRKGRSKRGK
UniProt O14641: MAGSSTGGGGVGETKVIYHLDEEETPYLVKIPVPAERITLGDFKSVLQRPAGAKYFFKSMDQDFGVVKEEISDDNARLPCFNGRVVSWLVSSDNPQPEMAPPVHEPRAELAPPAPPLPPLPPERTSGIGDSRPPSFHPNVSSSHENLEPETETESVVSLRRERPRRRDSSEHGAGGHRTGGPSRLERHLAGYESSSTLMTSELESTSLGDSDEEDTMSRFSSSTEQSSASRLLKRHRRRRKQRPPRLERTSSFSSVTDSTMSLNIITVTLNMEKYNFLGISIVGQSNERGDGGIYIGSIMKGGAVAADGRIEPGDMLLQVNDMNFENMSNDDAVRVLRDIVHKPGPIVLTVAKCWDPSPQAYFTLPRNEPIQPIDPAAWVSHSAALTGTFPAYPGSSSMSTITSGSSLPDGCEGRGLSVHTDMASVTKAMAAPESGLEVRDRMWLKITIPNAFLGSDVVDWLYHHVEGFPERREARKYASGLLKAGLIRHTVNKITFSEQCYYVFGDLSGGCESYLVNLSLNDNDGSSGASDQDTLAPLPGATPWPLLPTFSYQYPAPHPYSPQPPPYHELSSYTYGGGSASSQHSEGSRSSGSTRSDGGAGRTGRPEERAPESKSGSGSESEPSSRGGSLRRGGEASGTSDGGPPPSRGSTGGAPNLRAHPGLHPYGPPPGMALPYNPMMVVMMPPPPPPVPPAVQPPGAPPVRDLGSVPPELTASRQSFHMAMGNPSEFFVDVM
UniProt Q9BUR5: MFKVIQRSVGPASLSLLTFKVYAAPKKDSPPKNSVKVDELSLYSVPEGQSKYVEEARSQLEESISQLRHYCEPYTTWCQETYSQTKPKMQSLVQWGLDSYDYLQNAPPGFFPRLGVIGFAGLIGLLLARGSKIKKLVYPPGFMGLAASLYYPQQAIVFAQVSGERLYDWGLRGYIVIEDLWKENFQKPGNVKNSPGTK
UniProt O60232: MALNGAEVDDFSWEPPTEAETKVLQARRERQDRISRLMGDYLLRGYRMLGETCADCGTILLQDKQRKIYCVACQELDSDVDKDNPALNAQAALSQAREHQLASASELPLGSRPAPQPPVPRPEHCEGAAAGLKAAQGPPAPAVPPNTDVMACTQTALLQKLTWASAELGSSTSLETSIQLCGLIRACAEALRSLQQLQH
UniProt Q15782: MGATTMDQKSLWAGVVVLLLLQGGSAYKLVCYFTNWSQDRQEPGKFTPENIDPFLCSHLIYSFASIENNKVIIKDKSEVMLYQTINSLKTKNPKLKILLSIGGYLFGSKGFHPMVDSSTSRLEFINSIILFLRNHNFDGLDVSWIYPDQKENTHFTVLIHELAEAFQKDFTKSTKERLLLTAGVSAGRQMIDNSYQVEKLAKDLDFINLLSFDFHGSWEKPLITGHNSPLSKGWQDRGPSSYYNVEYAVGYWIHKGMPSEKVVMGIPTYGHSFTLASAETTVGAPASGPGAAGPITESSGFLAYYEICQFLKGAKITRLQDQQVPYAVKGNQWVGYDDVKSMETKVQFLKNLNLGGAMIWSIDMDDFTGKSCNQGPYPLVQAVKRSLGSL
UniProt Q96SB4, whole entry: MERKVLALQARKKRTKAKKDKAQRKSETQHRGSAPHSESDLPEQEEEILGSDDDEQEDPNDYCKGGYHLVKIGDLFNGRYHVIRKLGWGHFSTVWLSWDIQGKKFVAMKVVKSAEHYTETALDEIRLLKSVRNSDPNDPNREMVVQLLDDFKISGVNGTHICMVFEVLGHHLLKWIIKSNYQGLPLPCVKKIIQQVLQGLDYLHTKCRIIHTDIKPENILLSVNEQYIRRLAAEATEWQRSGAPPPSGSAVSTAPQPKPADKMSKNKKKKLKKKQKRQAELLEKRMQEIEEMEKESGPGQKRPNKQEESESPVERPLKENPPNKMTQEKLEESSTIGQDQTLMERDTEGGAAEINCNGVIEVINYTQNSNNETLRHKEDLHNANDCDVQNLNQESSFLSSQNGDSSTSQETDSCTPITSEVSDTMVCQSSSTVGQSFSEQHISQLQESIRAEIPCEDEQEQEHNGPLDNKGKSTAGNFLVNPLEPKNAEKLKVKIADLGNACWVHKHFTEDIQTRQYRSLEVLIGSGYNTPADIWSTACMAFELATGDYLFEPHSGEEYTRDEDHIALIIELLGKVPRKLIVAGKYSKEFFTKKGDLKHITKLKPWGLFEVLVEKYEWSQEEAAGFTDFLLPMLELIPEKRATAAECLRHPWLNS
UniProt Q01130: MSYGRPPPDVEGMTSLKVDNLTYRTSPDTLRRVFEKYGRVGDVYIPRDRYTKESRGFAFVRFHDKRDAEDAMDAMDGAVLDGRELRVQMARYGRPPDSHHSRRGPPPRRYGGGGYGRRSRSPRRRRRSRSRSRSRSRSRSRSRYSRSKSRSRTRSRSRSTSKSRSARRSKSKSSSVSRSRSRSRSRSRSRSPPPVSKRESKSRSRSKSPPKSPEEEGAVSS
UniProt P40763, whole entry: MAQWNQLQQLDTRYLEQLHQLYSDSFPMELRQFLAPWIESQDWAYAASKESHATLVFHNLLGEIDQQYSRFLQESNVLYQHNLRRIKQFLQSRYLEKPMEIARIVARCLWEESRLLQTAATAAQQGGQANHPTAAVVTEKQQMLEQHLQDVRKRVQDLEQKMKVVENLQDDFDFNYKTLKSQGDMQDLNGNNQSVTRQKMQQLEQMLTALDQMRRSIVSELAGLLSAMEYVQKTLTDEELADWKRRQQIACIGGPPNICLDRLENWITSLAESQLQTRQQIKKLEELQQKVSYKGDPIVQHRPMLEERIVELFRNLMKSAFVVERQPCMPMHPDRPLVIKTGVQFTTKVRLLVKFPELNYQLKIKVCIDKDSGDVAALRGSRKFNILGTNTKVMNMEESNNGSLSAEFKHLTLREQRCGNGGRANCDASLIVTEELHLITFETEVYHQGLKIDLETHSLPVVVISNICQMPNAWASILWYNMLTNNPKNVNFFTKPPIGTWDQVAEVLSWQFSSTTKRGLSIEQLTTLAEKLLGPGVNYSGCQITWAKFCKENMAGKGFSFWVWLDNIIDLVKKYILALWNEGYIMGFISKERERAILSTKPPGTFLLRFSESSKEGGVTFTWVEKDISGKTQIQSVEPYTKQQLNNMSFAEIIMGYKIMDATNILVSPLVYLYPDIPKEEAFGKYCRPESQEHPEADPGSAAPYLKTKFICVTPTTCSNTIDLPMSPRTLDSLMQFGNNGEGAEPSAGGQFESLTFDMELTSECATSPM
UniProt Q96K21: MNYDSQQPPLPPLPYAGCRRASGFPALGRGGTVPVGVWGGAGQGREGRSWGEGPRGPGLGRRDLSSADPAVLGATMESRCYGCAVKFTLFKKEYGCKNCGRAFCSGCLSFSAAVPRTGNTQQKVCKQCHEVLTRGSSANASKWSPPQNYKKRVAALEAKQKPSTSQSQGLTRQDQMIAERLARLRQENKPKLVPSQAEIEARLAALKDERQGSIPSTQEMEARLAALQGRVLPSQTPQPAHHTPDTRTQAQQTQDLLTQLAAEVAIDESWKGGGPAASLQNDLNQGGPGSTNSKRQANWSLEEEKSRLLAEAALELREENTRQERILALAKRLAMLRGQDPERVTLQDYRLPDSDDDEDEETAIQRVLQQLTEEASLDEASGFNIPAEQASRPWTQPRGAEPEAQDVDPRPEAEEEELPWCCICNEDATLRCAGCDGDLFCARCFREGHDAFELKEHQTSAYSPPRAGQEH
UniProt P80404: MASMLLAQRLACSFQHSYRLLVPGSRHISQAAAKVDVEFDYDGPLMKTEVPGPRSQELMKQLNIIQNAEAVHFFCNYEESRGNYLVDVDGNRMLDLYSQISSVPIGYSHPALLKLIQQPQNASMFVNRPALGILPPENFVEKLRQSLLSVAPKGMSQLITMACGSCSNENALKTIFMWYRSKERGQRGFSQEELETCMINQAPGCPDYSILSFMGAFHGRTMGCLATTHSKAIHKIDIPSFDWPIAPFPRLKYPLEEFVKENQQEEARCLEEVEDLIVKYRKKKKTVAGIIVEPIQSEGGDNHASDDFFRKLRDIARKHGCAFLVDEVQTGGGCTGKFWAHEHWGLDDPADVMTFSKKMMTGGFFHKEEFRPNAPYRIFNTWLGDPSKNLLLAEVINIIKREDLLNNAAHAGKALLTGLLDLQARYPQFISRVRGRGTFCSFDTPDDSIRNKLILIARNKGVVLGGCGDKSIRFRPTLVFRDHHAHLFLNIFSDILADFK

Compound: Nc1nc2c(ncn2[C@@H]2O[C@H](COP(=O)(O)OP(=O)(O)OP(=O)(O)O)[C@@H](O)[C@H]2O)c(=O)[nH]1 [guanosine triphosphate]
Assay: NP40-soluble protein abundance relative to vehicle (solubility fold change) (ratio); higher = more soluble protein in presence of GTP
Summary of the method: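 Jurkat crude lysate (Dounce-homogenised) was treated with eight concentrations from 0.1 to 10 mM for 10 min at room temperature, then 3 min at 37 °C. It was solubilised with 0.8% NP40 and benzonase (60 min, 4 °C) and ultracentrifuged, and the supernatant was TMT-labelled for LC-MS/MS. Intensities were vsn-normalised, and the value is the fold change against the NP40-processed vehicle per replicate, from three independent experiments.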

Target | NP40-soluble protein abundance (concentration: 0.1mM) | NP40-soluble protein abundance (concentration: 0.5mM) | NP40-soluble protein abundance (concentration: 1mM) | NP40-soluble protein abundance (concentration: 2mM) | NP40-soluble protein abundance (concentration: 4mM) | NP40-soluble protein abundance (concentration: 6mM) | NP40-soluble protein abundance (concentration: 8mM) | NP40-soluble protein abundance (concentration: 10mM)
K7EIY6 and related entries (UniProt Q9BV68) | 0.911 ± 0.078 | 0.974 ± 0.059 | 1 ± 0.085 | 0.978 ± 0.036 | 0.981 ± 0.033 | 0.996 ± 0.042 | 0.96 ± 0.12 | 1.01 ± 0.11
H3BUX2 and related entries (UniProt O43169) | 0.844 ± 0.024 | 0.822 ± 0.067 | 0.902 ± 0.039 | 0.852 ± 0.087 | 0.863 ± 0.11 | 0.889 ± 0.12 | 0.836 ± 0.096 | 0.857 ± 0.057
J3KPP0 and related entries (UniProt Q9Y6G3) | 1.07 ± 0.12 | 1.07 ± 0.13 | 1.24 ± 0.24 | 1.15 ± 0.11 | 1.23 ± 0.12 | 1.2 ± 0.16 | 1.17 ± 0.2 | 1.23 ± 0.28
H0Y614 and related entries (UniProt P61960) | 1.04 ± 0.18 | 0.983 ± 0.17 | 1.08 ± 0.17 | 1.11 ± 0.11 | 1.17 ± 0.16 | 1.1 ± 0.13 | 1.15 ± 0.19 | 1.16 ± 0.16
J3QT87 and related entries (UniProt Q96SW2) | 1.07 ± 0.084 | 1.07 ± 0.1 | 0.979 ± 0.034 | 1.03 ± 0.12 | 1.05 ± 0.061 | 1.04 ± 0.1 | 0.946 ± 0.047 | 0.931 ± 0.039
J3KNN7 and related entries (UniProt Q7Z569) | 1.12 ± 0.03 | 1.11 ± 0.12 | 1.15 ± 0.057 | 1.12 ± 0.1 | 1.15 ± 0.18 | 1.13 ± 0.067 | 1.14 ± 0.076 | 1.12 ± 0.11
I3L2C7 and related entries (UniProt P57678) | 1.05 ± 0.18 | 1.17 ± 0.24 | 1.14 ± 0.22 | 1.26 ± 0.4 | 1.25 ± 0.31 | 1.26 ± 0.38 | 1.26 ± 0.35 | 1.17 ± 0.32
I3L2N2 and related entries (UniProt O14641) | 1.02 ± 0.028 | 1 ± 0.03 | 1.02 ± 0.042 | 1.02 ± 0.069 | 1.04 ± 0.071 | 1 ± 0.052 | 1.04 ± 0.058 | 1.03 ± 0.041
H7C1U8 and related entries (UniProt Q9BUR5) | 0.98 ± 0.038 | 0.931 ± 0.1 | 0.969 ± 0.012 | 0.974 ± 0.039 | 0.945 ± 0.053 | 0.956 ± 0.024 | 0.911 ± 0.073 | 0.95 ± 0.043
H0YEB6 and related entries (UniProt O60232) | 1.13 ± 0.12 | 1.07 ± 0.063 | 1.06 ± 0.082 | 1.06 ± 0.11 | 1.12 ± 0.1 | 1.05 ± 0.08 | 1.18 ± 0.13 | 1.14 ± 0.17
H0YE91 and related entries (UniProt Q15782) | 1.03 ± 0.068 | 1.07 ± 0.11 | 1.13 ± 0.15 | 1.15 ± 0.056 | 1.186 ± 0.0073 | 1.153 ± 0.0023 | 1.2 ± 0.089 | 1.114 ± 0.011
J3KN10 and related entries (UniProt P42356) | 1.135 ± 0.0094 | 1.21 ± 0.22 | 1.14 ± 0.16 | 1.16 ± 0.14 | 1.15 ± 0.32 | 1.1 ± 0.11 | 1.07 ± 0.047 | 1.14 ± 0.3
H3BLV9 and related entries (UniProt Q96SB4) | 1.1 ± 0.059 | 1.14 ± 0.026 | 1.21 ± 0.029 | 1.28 ± 0.068 | 1.39 ± 0.062 | 1.45 ± 0.076 | 1.55 ± 0.11 | 1.6 ± 0.18
J3KP15 and related entries (UniProt Q01130) | 1.02 ± 0.089 | 1.06 ± 0.092 | 1.19 ± 0.11 | 1.08 ± 0.15 | 1.11 ± 0.13 | 1.12 ± 0.13 | 1.26 ± 0.11 | 1.16 ± 0.098
G8JLH9 and related entries (UniProt P40763) | 1.02 ± 0.017 | 1.03 ± 0.047 | 0.965 ± 0.013 | 0.964 ± 0.02 | 0.953 ± 0.032 | 0.936 ± 0.024 | 0.94 ± 0.035 | 0.912 ± 0.068
H3BRF9 and related entries (UniProt Q96K21) | 1.04 ± 0.036 | 0.991 ± 0.078 | 1 ± 0.1 | 0.93 ± 0.016 | 0.911 ± 0.067 | 0.965 ± 0.11 | 0.961 ± 0.1 | 0.986 ± 0.12
H3BNQ7 and related entries (UniProt P80404) | 1.04 ± 0.034 | 1.063 ± 0.0064 | 1 ± 0.047 | 0.994 ± 0.024 | 1 ± 0.052 | 0.954 ± 0.029 | 0.918 ± 0.044 | 0.943 ± 0.055

Some entries already given, limited to NP40-soluble protein abundance (concentration: 0.5mM) and NP40-soluble protein abundance (concentration: 6mM):
Target | NP40-soluble protein abundance (concentration: 0.5mM) | NP40-soluble protein abundance (concentration: 6mM)
J3QT87 and related entries (UniProt Q96SW2) | 1.07 ± 0.1 | 1.04 ± 0.1
G8JLH9 and related entries (UniProt P40763) | 1.03 ± 0.047 | 0.936 ± 0.024
